Values from PubChem BioAssay AID1053208 (Peter MacCallum Cancer Centre, 2014).
The deposit covers about 17,000 reagents; this is a random part of them. 788 of them (4.7%) count as active. 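Calls rest on z-score classes alone; an extra cut-off of viability at most 70% of control was not applied to them.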 Unmarked entries are inactive. Reagents against one gene are numbered here. Further read-outs or replicates are left out here.

- Assay: 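Find knock-downs that sensitise mouse osteosarcoma cells to doxorubicin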 (primary screen)
- Cells: mouse osteosarcoma cells, early-passage culture from an engineered mouse model of fibroblastic bone tumour
- Knock-down reagent: siRNA pool against mouse genes, 40 nM
- Time to read-out: about 120 h (48 h before drug, then 72 h with drug)
- Conditions: doxorubicin 100 nM for 72 h, roughly 30-40% inhibitory dose
- Detection: 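Luminescent ATP signal taken as viability with or without 100 nM doxorubicin for 72 h; mean of two wells set against non-targeting siRNA and turned into robust z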
- Scale: viability z-score with doxorubicin: higher = more viable cells under doxorubicin; viability z-score without drug: higher = more viable cells with knock-down alone
- Call rule: 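Called active if knock-down leaves viability unchanged without drug (z within -2 to 2) but lowers it with doxorubicin (z at or under -2)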

| target gene | reagent | combined z-score class | viability z-score with doxorubicin | viability z-score without drug |
| --- | --- | --- | --- | --- |
| Scaf8 (SR-related CTD-associated factor 8) | 1 | no change with or without drug | 0.56 | 0.51 |
| Scaf8 (SR-related CTD-associated factor 8) | 2 | no change with or without drug | 0.79 | 0.34 |
| Tomm20 (translocase of outer mitochondrial membrane 20) | 1 | no change with or without drug | 1.12 | -0.17 |
| Kcmf1 (potassium channel modulatory factor 1) | 1 | high cell count without drug only | 0 | 2.36 |
| Traf3ip2 (TRAF3 interacting protein 2) | 1 | no change with or without drug | 0.22 | 0.17 |
| Igdcc4 (immunoglobulin superfamily, DCC subclass, member 4) | 1 | no change with or without drug | -1.35 | -0.17 |
| Crcp (calcitonin gene-related peptide-receptor component protein) | 1 | no change with or without drug | 0.9 | 1.52 |
| Zfp536 (zinc finger protein 536) | 1 | no change with or without drug | 0.22 | -0.17 |
| Nmu (neuromedin U) | 1 | no change with or without drug | 1.01 | -0.51 |
| Magea5 (MAGE family member A5) | 1 | no change with or without drug | -0.67 | 0.17 |
| Or10x1 (olfactory receptor family 10 subfamily X member 1) | 1 | no change with or without drug | -0.22 | -0.34 |
| Adtrp (androgen dependent TFPI regulating protein) | 1 | high cell count with doxorubicin only | 3.15 | 1.18 |
| Myo1g (myosin IG) | 1 | no change with or without drug | 1.35 | -0.34 |
| Bco1 (beta-carotene oxygenase 1) | 1 | no change with or without drug | -0.67 | -0.51 |
| Abcc1 (ATP-binding cassette, sub-family C member 1) | 1 | no change with or without drug | 0.67 | 0.17 |
| Zdhhc21 (zinc finger, DHHC domain containing 21) | 1 | high cell count with doxorubicin only | 2.81 | 0.84 |
| Ppt1 (palmitoyl-protein thioesterase 1) | 1 | no change with or without drug | 0.67 | 1.35 |
| Ppt1 (palmitoyl-protein thioesterase 1) | 2 | no change with or without drug | 0 | -0.51 |
| Fcer1a (Fc receptor, IgE, high affinity I, alpha polypeptide) | 1 | no change with or without drug | -0.9 | -0.34 |
| Gpr160 (G protein-coupled receptor 160) | 1 | no change with or without drug | -0.79 | -0.67 |
| Kics2 (KICSTOR subunit 2) | 1 | no change with or without drug | -0.9 | -1.52 |
| Itgb3bp (integrin beta 3 binding protein (beta3-endonexin)) | 1 | no change with or without drug | 1.57 | 0.84 |
| Egfl6 (EGF-like-domain, multiple 6) | 1 | no change with or without drug | -0.22 | 0.51 |

Continued; the last 5 above are carried over.
| target gene | reagent | combined z-score class | viability z-score with doxorubicin | viability z-score without drug |
| --- | --- | --- | --- | --- |
| Fcer1a (Fc receptor, IgE, high affinity I, alpha polypeptide) | 1 | no change with or without drug | -0.9 | -0.34 |
| Gpr160 (G protein-coupled receptor 160) | 1 | no change with or without drug | -0.79 | -0.67 |
| Kics2 (KICSTOR subunit 2) | 1 | no change with or without drug | -0.9 | -1.52 |
| Itgb3bp (integrin beta 3 binding protein (beta3-endonexin)) | 1 | no change with or without drug | 1.57 | 0.84 |
| Egfl6 (EGF-like-domain, multiple 6) | 1 | no change with or without drug | -0.22 | 0.51 |
| Tmem39b (transmembrane protein 39b) | 1 | no change with or without drug | 0.67 | 0.34 |
| Ubtd1 (ubiquitin domain containing 1) | 1 | no change with or without drug | -1.57 | -0.17 |
| Ccl4 (C-C motif chemokine ligand 4) | 1 | low cell count with and without drug | -2.14 | -2.19 |
| Or8h10 (olfactory receptor family 8 subfamily H member 10) | 1 | no change with or without drug | 0.9 | 1.01 |
| Ucn3 (urocortin 3) | 1 | no change with or without drug | -1.24 | -0.17 |
| Mptx1 (mucosal pentraxin 1) | 1 | high cell count without drug only | 0.79 | 2.02 |
| Pdpk1 (3-phosphoinositide dependent protein kinase 1) | 1 | no change with or without drug | 1.12 | -0.51 |
| Sdc2 (syndecan 2) | 1 | no change with or without drug | -0.22 | -0.17 |
| Lrrn3 (leucine rich repeat protein 3, neuronal) | 1 | no change with or without drug | -1.01 | -0.84 |
| Mybpc1 (myosin binding protein C, slow-type) | 1 | no change with or without drug | -0.11 | -0.17 |
| Sphkap (SPHK1 interactor, AKAP domain containing) | 1 | high cell count without drug only | 0.22 | 3.2 |
| Znf41-ps (ZNF41, pseudogene) | 1 | high cell count without drug only | -0.9 | 2.87 |
| Slc27a1 | 1 | no change with or without drug | 0 | 1.35 |
| Spop (speckle-type BTB/POZ protein) | 1 | no change with or without drug | 1.57 | 0.84 |
| Tcfl5 (transcription factor-like 5 (basic helix-loop-helix)) | 1 | no change with or without drug | 0.34 | 0.84 |
| Gm9734 (predicted gene 9734) | 1 | no change with or without drug | 0.67 | 0.17 |
| Klk1b27 (kallikrein 1-related peptidase b27) | 1 | no change with or without drug | 0.9 | 1.18 |
| Or10a2 (olfactory receptor family 10 subfamily A member 2) | 1 | no change with or without drug | -0.9 | -0.17 |
| Rassf2 (Ras association (RalGDS/AF-6) domain family member 2) | 1 | high cell count without drug only | 0.45 | 2.87 |
| Or51r1 (olfactory receptor family 51 subfamily R member 1) | 1 | no change with or without drug | -0.45 | -0.67 |
| Dmpk (dystrophia myotonica-protein kinase) | 1 | no change with or without drug | 1.57 | 0.51 |
| Klra12 (killer cell lectin-like receptor subfamily A, member 12) | 1 | high cell count without drug only | 1.12 | 2.36 |
| Pdzd11 (PDZ domain containing 11) | 1 | no change with or without drug | 0.45 | 0.51 |
| Msmo1 (methylsterol monoxygenase 1) | 1 | no change with or without drug | 0.22 | 1.52 |
| Nsmce1 (NSE1 homolog, SMC5-SMC6 complex component) | 1 | no change with or without drug | -0.22 | -0.34 |
| Ifnlr1 (interferon lambda receptor 1) | 1 | no change with or without drug | -0.45 | -0.67 |
| Far1 (fatty acyl CoA reductase 1) | 1 | no change with or without drug | 0.22 | 0.17 |
| Zfp7 (zinc finger protein 7) | 1 | high cell count with and without drug | 2.02 | 3.54 |
| Psen1 (presenilin 1) | 1 | no change with or without drug | 0.45 | 0.84 |
| Lrp2bp (Lrp2 binding protein) | 1 | low cell count with doxorubicin only (active) | -2.92 | 1.01 |
| Krt6a (keratin 6A) | 1 | no change with or without drug | 0.22 | 0.17 |
| Prokr1 (prokineticin receptor 1) | 1 | no change with or without drug | 1.35 | -0.17 |
| Csf1 (colony stimulating factor 1 (macrophage)) | 1 | high cell count without drug only | 1.01 | 2.87 |
| Supt20 (SPT20 SAGA complex component) | 1 | no change with or without drug | -0.9 | -0.34 |
| Crh (corticotropin releasing hormone) | 1 | no change with or without drug | 1.24 | -0.17 |
| Or52a24 (olfactory receptor family 52 subfamily A member 24) | 1 | no change with or without drug | 0.34 | 0.51 |
| Mtag2 (metastasis associated gene 2) | 1 | no change with or without drug | -0.22 | -0.17 |
| Tbcd (tubulin-specific chaperone d) | 1 | no change with or without drug | -1.12 | 0.51 |
| Ndufb7 (NADH:ubiquinone oxidoreductase subunit B7) | 1 | low cell count with and without drug | -3.37 | -3.2 |
| Top1 (topoisomerase (DNA) I) | 1 | no change with or without drug | -1.57 | 0.17 |
